Experimental data: PubChem BioAssay AID602196 (INSERM, 2012)
Screen: 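Genes whose knock-down alters cisplatin killing of lung cancer cells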. Cells: human A549 lung cancer cells. Reagent: siRNA pair against human genes. Timing: 48 h transfection before cisplatin; time from cisplatin to read-out not stated. Conditions: cisplatin at a dose killing half of control-siRNA cells; exact dose and duration not given. Read-out: 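Shift in cisplatin death relative to control siRNA, from -50 (all cells die) to +50 (no cells die); siRNAs harmful on their own scored 0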. Direction: two-siRNA summed score (-2 to +2): higher = both siRNAs protect from cisplatin killing; -2 means both sensitise; mean protection from cisplatin (shift in death): higher = protection from cisplatin killing. Rule for the call: 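Each siRNA scores 0 if harmful alone by LDH or WST-1, otherwise +1 if it reduces and -1 if it increases cisplatin killing; a gene is active when both siRNAs agree (sum +2 or -2)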. Meaning of the calls: active = both siRNAs shift cisplatin killing the same way; inactive = no consistent shift, or siRNA harmful alone.
Shown is a random part of about 23,000 deposited reagents. Over the whole deposit, 455 (2%) got an active call. 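Active includes both protection and sensitisation; some change values fall well beyond the stated -50 to +50 range.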 Not all columns of the deposit are shown. Not given: the amount of reagent.

Knock-down of PTTG2 came out at: two-siRNA summed score (-2 to +2) = 0; mean protection from cisplatin (shift in death) (%) = -13.8; inactive.
For CRH, the values are two-siRNA summed score (-2 to +2) = 1; mean protection from cisplatin (shift in death) (%) = 3.2; inactive.
FAM219B gave two-siRNA summed score (-2 to +2) = 0; mean protection from cisplatin (shift in death) (%) = -7.5; inactive.
After knock-down of LOC440264, the record shows two-siRNA summed score (-2 to +2) = 0; mean protection from cisplatin (shift in death) (%) = 23.3; inactive.
PADI2 gave two-siRNA summed score (-2 to +2) = 0; mean protection from cisplatin (shift in death) (%) = -0.3; inactive.
For SARDH, the values are two-siRNA summed score (-2 to +2) = 1; mean protection from cisplatin (shift in death) (%) = 17.6; inactive.
With knock-down of CNOT6, the screen gave two-siRNA summed score (-2 to +2) = 1; mean protection from cisplatin (shift in death) (%) = 11.5; inactive.
Knock-down of LOC390855 resulted in: two-siRNA summed score (-2 to +2) = 0; mean protection from cisplatin (shift in death) (%) = 4.4; inactive.
TBCCD1 showed two-siRNA summed score (-2 to +2) = 0; mean protection from cisplatin (shift in death) (%) = 8.2; inactive.
SND1 showed two-siRNA summed score (-2 to +2) = 0; mean protection from cisplatin (shift in death) (%) = -2.2; inactive.
After knock-down of ACMSD, the screen gave two-siRNA summed score (-2 to +2) = 0; mean protection from cisplatin (shift in death) (%) = 7.5; inactive.
HBZ gave two-siRNA summed score (-2 to +2) = 1; mean protection from cisplatin (shift in death) (%) = 16.3; inactive.
